Results are given in words; binding and its absence hold for the method and conditions named. In cells and extracts the contact can be indirect. Here binding means that the protein was enriched with, or labelled near, the bait; the list need not be complete. Sequences can lack the tags named with a protein.

By UniProt entry, the sequences of proteins in these tests, tags left out. Residues count along the entry.
UniProt P63038, residues 27-573: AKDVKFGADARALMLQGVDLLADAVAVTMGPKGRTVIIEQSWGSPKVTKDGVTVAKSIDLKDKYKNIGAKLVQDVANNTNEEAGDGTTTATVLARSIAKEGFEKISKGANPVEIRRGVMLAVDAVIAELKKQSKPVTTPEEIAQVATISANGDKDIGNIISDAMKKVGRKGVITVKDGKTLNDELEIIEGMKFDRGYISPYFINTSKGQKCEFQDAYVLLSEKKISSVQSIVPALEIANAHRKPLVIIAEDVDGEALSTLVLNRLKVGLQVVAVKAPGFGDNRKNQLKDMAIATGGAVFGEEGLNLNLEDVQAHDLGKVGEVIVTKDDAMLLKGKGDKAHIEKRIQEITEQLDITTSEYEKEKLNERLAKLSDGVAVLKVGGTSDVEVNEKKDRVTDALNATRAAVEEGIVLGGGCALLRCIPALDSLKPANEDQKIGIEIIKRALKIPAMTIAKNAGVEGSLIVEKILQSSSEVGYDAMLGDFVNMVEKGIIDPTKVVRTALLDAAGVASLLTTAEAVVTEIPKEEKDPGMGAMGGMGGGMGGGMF
UniProt Q03265, residues 44-553: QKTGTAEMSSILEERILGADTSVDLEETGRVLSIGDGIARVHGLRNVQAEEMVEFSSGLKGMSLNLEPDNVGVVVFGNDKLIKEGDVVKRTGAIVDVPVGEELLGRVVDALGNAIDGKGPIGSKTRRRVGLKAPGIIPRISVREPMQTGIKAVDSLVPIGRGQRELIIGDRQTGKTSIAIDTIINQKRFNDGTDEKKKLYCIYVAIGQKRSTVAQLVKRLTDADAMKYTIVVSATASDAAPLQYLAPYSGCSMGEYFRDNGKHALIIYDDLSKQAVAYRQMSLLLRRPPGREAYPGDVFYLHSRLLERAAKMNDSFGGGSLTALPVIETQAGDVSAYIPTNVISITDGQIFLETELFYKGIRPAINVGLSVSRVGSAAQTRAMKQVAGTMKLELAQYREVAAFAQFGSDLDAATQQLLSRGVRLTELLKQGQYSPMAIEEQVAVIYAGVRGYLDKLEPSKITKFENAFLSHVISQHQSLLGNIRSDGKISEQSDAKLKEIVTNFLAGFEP
UniProt P56480, residues 47-529: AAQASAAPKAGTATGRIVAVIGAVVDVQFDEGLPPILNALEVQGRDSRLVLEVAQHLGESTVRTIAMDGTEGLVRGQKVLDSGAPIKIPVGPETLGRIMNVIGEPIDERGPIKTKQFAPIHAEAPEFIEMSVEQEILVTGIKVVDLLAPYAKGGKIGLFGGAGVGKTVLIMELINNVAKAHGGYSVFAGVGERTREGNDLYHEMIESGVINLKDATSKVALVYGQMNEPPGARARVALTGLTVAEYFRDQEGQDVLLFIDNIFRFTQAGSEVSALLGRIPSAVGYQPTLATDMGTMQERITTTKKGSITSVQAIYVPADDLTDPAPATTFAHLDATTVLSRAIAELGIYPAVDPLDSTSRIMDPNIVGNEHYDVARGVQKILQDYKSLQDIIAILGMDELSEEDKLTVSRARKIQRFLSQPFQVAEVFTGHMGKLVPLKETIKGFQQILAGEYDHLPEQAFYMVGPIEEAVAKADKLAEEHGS
UniProt P62897: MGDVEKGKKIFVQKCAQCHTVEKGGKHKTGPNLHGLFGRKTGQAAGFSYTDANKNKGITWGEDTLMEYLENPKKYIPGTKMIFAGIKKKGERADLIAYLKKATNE
UniProt P62631: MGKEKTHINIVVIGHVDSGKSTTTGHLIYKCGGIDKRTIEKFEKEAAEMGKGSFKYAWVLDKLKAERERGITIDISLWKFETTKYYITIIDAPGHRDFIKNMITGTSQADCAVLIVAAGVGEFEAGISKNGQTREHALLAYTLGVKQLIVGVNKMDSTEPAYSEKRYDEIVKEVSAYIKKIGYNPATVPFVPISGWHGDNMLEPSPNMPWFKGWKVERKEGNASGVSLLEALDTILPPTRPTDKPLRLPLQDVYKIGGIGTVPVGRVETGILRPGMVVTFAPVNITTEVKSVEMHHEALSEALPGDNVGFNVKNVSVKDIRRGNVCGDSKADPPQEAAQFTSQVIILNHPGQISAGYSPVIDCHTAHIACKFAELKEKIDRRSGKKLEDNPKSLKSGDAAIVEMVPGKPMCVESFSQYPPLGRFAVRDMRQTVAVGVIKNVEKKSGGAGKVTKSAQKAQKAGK
UniProt P20029, residues 20-655: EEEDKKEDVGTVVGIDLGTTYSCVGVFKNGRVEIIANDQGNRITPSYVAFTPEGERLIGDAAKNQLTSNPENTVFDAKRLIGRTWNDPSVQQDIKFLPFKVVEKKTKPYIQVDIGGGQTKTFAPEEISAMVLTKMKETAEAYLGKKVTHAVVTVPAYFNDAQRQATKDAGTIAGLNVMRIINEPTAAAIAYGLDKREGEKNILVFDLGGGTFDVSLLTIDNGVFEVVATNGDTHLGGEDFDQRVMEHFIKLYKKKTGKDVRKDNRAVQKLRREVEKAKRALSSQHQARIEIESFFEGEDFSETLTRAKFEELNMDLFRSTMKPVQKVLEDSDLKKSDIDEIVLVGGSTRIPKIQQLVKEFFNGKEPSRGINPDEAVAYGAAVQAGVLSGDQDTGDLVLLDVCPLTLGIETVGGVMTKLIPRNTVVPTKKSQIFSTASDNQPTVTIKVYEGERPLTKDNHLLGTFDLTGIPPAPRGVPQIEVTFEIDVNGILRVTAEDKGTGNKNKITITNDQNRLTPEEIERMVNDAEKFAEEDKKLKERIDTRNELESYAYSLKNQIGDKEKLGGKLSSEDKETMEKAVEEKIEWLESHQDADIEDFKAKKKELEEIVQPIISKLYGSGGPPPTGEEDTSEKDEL
UniProt P01942: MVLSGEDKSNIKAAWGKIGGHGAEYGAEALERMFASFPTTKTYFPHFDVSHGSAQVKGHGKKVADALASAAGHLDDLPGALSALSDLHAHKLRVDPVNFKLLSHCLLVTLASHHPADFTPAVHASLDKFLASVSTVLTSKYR
UniProt P02088: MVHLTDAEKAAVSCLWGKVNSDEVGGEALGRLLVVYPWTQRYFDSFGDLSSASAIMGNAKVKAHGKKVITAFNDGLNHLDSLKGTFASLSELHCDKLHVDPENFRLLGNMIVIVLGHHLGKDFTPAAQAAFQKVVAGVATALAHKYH
UniProt P02089: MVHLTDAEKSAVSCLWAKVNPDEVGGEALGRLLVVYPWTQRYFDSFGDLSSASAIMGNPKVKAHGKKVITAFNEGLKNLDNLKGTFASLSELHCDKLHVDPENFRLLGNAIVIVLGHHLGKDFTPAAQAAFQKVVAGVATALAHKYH
UniProt P24369, residues 34-216: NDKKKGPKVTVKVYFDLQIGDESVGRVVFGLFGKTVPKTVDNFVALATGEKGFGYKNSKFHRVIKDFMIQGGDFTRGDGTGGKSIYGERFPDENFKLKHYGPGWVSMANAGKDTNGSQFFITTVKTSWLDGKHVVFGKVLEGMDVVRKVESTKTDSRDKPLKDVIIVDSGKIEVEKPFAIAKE
UniProt Q62446: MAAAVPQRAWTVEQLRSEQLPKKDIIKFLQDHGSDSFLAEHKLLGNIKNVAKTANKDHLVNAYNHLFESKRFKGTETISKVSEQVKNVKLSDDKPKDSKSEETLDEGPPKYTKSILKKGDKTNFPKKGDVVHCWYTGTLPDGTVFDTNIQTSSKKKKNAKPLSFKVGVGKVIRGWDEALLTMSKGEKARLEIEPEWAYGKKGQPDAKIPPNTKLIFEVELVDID
UniProt P38647, residues 47-679: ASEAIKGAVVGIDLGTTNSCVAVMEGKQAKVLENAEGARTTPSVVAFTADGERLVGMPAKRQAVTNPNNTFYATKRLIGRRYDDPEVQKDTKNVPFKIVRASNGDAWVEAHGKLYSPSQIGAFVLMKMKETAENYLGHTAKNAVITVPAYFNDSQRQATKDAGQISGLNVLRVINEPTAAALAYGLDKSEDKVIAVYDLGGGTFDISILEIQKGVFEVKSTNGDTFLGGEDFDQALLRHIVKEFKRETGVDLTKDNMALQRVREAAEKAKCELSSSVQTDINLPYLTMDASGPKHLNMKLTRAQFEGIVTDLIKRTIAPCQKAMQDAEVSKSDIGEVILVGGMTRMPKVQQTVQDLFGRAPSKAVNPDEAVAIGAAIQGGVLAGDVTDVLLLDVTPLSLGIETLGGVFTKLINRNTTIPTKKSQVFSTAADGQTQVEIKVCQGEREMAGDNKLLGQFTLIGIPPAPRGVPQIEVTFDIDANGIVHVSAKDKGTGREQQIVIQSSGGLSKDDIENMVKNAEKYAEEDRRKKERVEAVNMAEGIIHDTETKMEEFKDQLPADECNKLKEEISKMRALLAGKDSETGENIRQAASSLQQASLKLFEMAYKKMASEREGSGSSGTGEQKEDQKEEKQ
UniProt Q8BMS1, residues 37-763: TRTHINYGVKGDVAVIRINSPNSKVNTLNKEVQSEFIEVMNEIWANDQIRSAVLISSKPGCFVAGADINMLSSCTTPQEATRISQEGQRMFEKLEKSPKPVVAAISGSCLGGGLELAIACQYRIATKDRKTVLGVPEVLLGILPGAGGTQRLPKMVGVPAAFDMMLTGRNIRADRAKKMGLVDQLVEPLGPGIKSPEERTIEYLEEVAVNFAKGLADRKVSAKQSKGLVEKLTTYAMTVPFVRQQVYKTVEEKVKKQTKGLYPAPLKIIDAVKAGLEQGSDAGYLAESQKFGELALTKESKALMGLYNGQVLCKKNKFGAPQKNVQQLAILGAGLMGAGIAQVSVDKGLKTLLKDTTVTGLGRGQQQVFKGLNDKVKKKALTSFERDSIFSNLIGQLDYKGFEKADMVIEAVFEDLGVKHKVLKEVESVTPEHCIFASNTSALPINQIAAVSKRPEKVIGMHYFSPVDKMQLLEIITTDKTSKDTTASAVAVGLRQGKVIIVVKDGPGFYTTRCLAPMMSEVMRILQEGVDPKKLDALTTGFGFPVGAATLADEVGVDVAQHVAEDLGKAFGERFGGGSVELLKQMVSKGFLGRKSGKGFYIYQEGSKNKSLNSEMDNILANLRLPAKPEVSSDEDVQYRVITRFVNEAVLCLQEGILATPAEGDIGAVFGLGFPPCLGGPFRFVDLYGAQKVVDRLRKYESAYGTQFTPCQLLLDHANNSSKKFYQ

In the assay the target is T1, GATD3A:FLAG (glutamine amidotransferase-like class 1 domain-containing protein 3A, mouse, FLAG knock-in) (mouse) (UniProt Q9D172).
T1 sequence: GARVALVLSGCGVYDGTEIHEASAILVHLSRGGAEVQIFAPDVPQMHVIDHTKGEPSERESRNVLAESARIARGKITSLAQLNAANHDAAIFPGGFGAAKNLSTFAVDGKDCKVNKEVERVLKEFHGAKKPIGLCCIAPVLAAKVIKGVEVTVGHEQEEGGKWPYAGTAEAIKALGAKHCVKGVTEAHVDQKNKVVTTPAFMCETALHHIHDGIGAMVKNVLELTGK
The assay is described as follows: affinity purification with mass spectrometry; magnetic anti-FLAG beads with lysate of Gatd3a^FLAG/FLAG mouse heart mitochondria (20 mM HEPES pH 7.4, 100 mM NaCl, 10% glycerol, 1 mM DTT, 2% digitonin, 2.5% NP-40), overnight at 4 °C; eluted with 0.2 mg/ml FLAG peptide; LC-MS/MS; performed three times.

Turning to “60 kDa heat shock protein, mitochondrial (from UniProt P63038 27-573)”, the binding entry is listed as “binds”.
The same measure for “ATP synthase subunit alpha, mitochondrial (from UniProt Q03265 44-553)”: “binds”.
The value for “ATP synthase subunit beta, mitochondrial (from UniProt P56480 47-529)” was “binds”.
The same measure for “Cytochrome c, somatic (from UniProt P62897 1-105)”: “binds”; for “Elongation factor 1-alpha 2 (from UniProt P62631 1-463)”: “binds”.
With “Endoplasmic reticulum chaperone BiP (from UniProt P20029 20-655)”, the binding entry is “binds”.
The value for “Hemoglobin subunit alpha (from UniProt P01942 1-142)” was “binds”; that for “Hemoglobin subunit beta-1 (from UniProt P02088 1-147)” was “binds”; that for “Hemoglobin subunit beta-2 (from UniProt P02089 1-147)” was “binds”.
On to “Peptidyl-prolyl cis-trans isomerase B (from UniProt P24369 34-216)”, for which the binding result was “binds”.
The same measure for “Peptidyl-prolyl cis-trans isomerase FKBP3 (from UniProt Q62446 1-224)”: “binds”; for SLIRP (mouse (endogenous in heart)): “binds”.
The same measure for “Stress-70 protein, mitochondrial (from UniProt P38647 47-679)”: “binds”; for “Transitional endoplasmic reticulum ATPase (from UniProt Q01853 1-806)”: “binds”.
The same measure for “Trifunctional enzyme subunit alpha, mitochondrial (from UniProt Q8BMS1 37-763)”: “binds”.

B1: Trifunctional enzyme subunit beta, mitochondrial (protein, UniProt Q99JY0 35-475)
chain: SAPAVQTKSKKTLAKPNMKNIVVVEGVRIPFLLSGTSYKDLMPHDLARAALSGLLHRTNIPKDVVDYIIFGTVIQEVKTSNVAREAALGAGFSDKTPAHTVTMACISSNQAMTTAVGLIASGQCDVVVAGGVELMSDVPIRHSRNMRKMMLDLNKAKTLGQRLSLLSKFRLNFLSPELPAVAEFSTNETMGHSADRLAAAFAVSRMEQDEYALRSHSLAKKAQDEGHLSDIVPFKVPGKDTVTKDNGIRPSSLEQMAKLKPAFIKPYGTVTAANSSFLTDGASAMLIMSEDRALAMGYKPKAYLRDFIYVSQDPKDQLLLGPTYATPKVLEKAGLTMNDIDAFEFHEAFSGQILANFKAMDSDWFAQNYMGRKTKVGSPPLEKFNIWGGSLSLGHPFGATGCRLVMAAANRLRKDGGQYALVAACAAGGQGHAMIVEAYPK
As for B1, the binding result is “binds”.

B2: Malate dehydrogenase, mitochondrial (protein, UniProt P08249 25-338)
chain: AKVAVLGASGGIGQPLSLLLKNSPLVSRLTLYDIAHTPGVAADLSHIETRANVKGYLGPEQLPDCLKGCDVVVIPAGVPRKPGMTRDDLFNTNATIVATLTAACAQHCPEAMVCIIANPVNSTIPITAEVFKKHGVYNPNKIFGVTTLDIVRANTFVAELKGLDPARVNVPVIGGHAGKTIIPLISQCTPKVDFPQDQLATLTGRIQEAGTEVVKAKAGAGSATLSMAYAGARFVFSLVDAMNGKEGVVECSFVQSKETECTYFSTPLLLGKKGLEKNLGIGKITPFEEKMIAEAIPELKASIKKGEDFVKNMK
For B2, the binding result is on record as “binds”.

B3: ADP/ATP Translocase 2 (protein, UniProt P51881 1-298)
chain: MTDAAVSFAKDFLAGGVAAAISKTAVAPIERVKLLLQVQHASKQITADKQYKGIIDCVVRIPKEQGVLSFWRGNLANVIRYFPTQALNFAFKDKYKQIFLGGVDKRTQFWRYFAGNLASGGAAGATSLCFVYPLDFARTRLAADVGKAGAEREFKGLGDCLVKIYKSDGIKGLYQGFNVSVQGIIIYRAAYFGIYDTAKGMLPDPKNTHIFISWMIAQSVTAVAGLTSYPFDTVRRRMMMQSGRKGTDIMYTGTLDCWRKIARDEGSKAFFKGAWSNVLRGMGGAFVLVLYDEIKKYT
B3: the binding entry was “binds”.

B4: Long-chain-specific acyl-CoA dehydrogenase, mitochondrial (protein, UniProt P51174 31-430)
chain: GAEARLETPSAKKLTDVGIRRIFSSEHDIFRESVRKFFQEEVIPHHTEWEKAGEVSREVWEKAGKQGLLGINIAEKHGGIGGDLLSTAVTWEEQAYSNCTGPGFSLHSDIVMPYIANYGTKEQIEKFIPQMTAGKCIGAIAMTEPGAGSDLQGVRTNAKRSGSDWILNGSKVFITNGWLSDLVIVVAVTNREARSPAHGISLFLVENGMKGFIKGRKLHKMGMKAQDTAELFFEDVRLPANALLGEENKGFYYLMQELPQERLLIAELAISACEFMFEETRNYVKQRKAFGKTVAHIQTVQHKLAELKTHICVTRAFVDSCLQLHETKRLDSGSASMAKYWASELQNSVAYECVQLHGGWGYMWEYPIAKAYVDARVQPIYGGTNEIMKELIARQIVSDS
For B4, the binding entry is on record as “binds”.

B5: ADP/ATP translocase 1 (protein, UniProt P48962 1-298)
chain: MGDQALSFLKDFLAGGIAAAVSKTAVAPIERVKLLLQVQHASKQISAEKQYKGIIDCVVRIPKEQGFLSFWRGNLANVIRYFPTQALNFAFKDKYKQIFLGGVDRHKQFWRYFAGNLASGGAAGATSLCFVYPLDFARTRLAADVGKGSSQREFNGLGDCLTKIFKSDGLKGLYQGFSVSVQGIIIYRAAYFGVYDTAKGMLPDPKNVHIIVSWMIAQSVTAVAGLVSYPFDTVRRRMMMQSGRKGADIMYTGTLDCWRKIAKDEGANAFFKGAWSNVLRGMGGAFVLVLYDEIKKYV
With B5, the binding entry is reported as “binds”.

B6: Propionyl-CoA carboxylase alpha chain, mitochondrial (protein, UniProt Q91ZA3 49-724)
chain: SVEYEPKEKTFDKILIANRGEIACRVIKTCKKMGIKTVAIHSDVDASSVHVKMADEAVCVGPAPTSKSYLNMDAIMEAIKKTRAQAVHPGYGFLSENKEFAKRLAAEDVTFIGPDTHAIQAMGDKIESKLLAKRAKVNTIPGFDGVVKDADEAVRIAREIGYPVMIKASAGGGGKGMRIAWDDEETRDGFRFSSQEAASSFGDDRLLIEKFIDNPRHIEIQVLGDKHGNALWLNERECSIQRRNQKVVEEAPSIFLDPETRQAMGEQAVALAKAVKYSSAGTVEFLVDSQKNFYFLEMNTRLQVEHPVTECITGLDLVQEMILVAKGYPLRHKQEDIPISGWAVECRVYAEDPYKSFGLPSIGRLSQYQEPIHLPGVRVDSGIQPGSDISIYYDPMISKLVTYGSDRAEALKRMEDALDNYVIRGVTHNIPLLREVIINTRFVKGDISTKFLSDVYPDGFKGHTLTLSERNQLLAIASSVFVASQLRAQRFQEHSRVPVIRPDVAKWELSVKLHDEDHTVVASNNGPAFTVEVDGSKLNVTSTWNLASPLLSVNVDGTQRTVQCLSREAGGNMSIQFLGTVYKVHILTKLAAELNKFMLEKVPKDTSSTLCSPMPGVVVAVSVKPGDMVAEGQEICVIEAMKMQNSMTAGKMGKVKLVHCKAGDTVGEGDLLVELE
For the molecule B6, the binding result is recorded as “binds”.

B7: Mitochondrial 10-formyltetrahydrofolate dehydrogenase (protein, UniProt Q8K009 1-923)
chain: MLWRGSQALRHFSTSRVYFKNKLKLALIGQSLFGQEVYSQLLKEGHRVVGVFTVPDKDGKADPLALAAEKDGTPVFKFPRWRLKGKTIKEVAEAYQSVGAELNVLPFCTQFIPMDVIDSPKHGSIIYHPSLLPRHRGASAINWTLIMGDKKAGFSVFWADDGLDTGPILLQRSCDVKPNDTVDSLYNRFLFPEGIKAMVEAVQLIADGKAPRTPQPEEGATYEGIQKKENAEVSWDQPAEGLHNWIRGHDKVPGAWAEINGQMVTFYGSSLLTSSVPSGEPLDIRGAKKPGLVTKNGLVLFGNDGKALMVRNLQFEDGKMIPASQYFSAGETSVVELTAEELKVAETIKVIWARILSNTPVIEDSTDFFKSGASSMDVVRLVEEIRQSCGGLQLQNEDVYMATKFGDFIQKVVRRLRGEDEEAEMVVDYVSKEVNGMTVKIPYQCFINGQFVDAEDGETYATVNPTDGTTICRVSYASLADVDRAVAAAKDAFENGEWGRMNARDRGRLMYRLADLMEENQEELATIEALDSGAVYTLALKTHIGMSVQTFRYFAGWCDKIQGSTIPINQARPNYNLTFTKKEPLGACAIIIPWNYPLMMLAWKSAACLAAGNTLVLKPAQVTPLTALKFAELTVKAGFPKGVINIIPGSGGVAGQRLSQHPDIRKLGFTGSTSVGKQIMKSCAVSNLKKVSLELGGKSPLIIFSDCDLEKAVRMGMGAVFFNKGENCIAAGRLFVEEAIHDEFVTRVVEEIKKMKIGDPLDRSTDHGPQNHRAHLEKLLQYCETGVQEGATLVYGGRQVQRPGFFMEPTVFTGVEDHMYLAKEESFGPIMVISKFQNGDIDGVLQRANNTEYGLASGVFTRDINKAMYVSDKLEAGTVFINTYNKTDVAAPFGGMKQSGFGKDLGEEALNEYLKIKTVTLEY
As to B7, the binding result is “binds”.

B8: Aconitate hydratase, mitochondrial (protein, UniProt Q99KI0 28-780)
chain: QRAKVAMSHFEPSEYIRYDLLEKNINIVRKRLNRPLTLSEKIVYGHLDDPANQEIERGKTYLRLRPDRVAMQDATAQMAMLQFISSGLPKVAVPSTIHCDHLIEAQVGGEKDLRRAKDINQEVYNFLATAGAKYGVGFWRPGSGIIHQIILENYAYPGVLLIGTDSHTPNGGGLGGICIGVGGADAVDVMAGIPWELKCPKVIGVKLTGSLSGWTSPKDVILKVAGILTVKGGTGAIVEYHGPGVDSISCTGMATICNMGAEIGATTSVFPYNHRMKKYLSKTGRTDIANLAEEFKDHLVPDPGCQYDQVIEINLNELKPHINGPFTPDLAHPVADVGTVAEKEGWPLDIRVGLIGSCTNSSYEDMGRSAAVAKQALAHGLKCKSQFTITPGSEQIRATIERDGYAQILRDVGGIVLANACGPCIGQWDRKDIKKGEKNTIVTSYNRNFTGRNDANPETHAFVTSPEIVTALAIAGTLKFNPETDFLTGKDGKKFKLEAPDADELPRSDFDPGQDTYQHPPKDSSGQRVDVSPTSQRLQLLEPFDKWDGKDLEDLQILIKVKGKCTTDHISAAGPWLKFRGHLDNISNNLLIGAINIENGKANSVRNAVTQEFGPVPDTARYYKKHGIRWVVIGDENYGEGSSREHAALEPRHLGGRAIITKSFARIHETNLKKQGLLPLTFADPSDYNKIHPVDKLTIQGLKDFAPGKPLKCVIKHPNGTQETILLNHTFNETQIEWFRAGSALNRMKELQQ
On to B8, for which the binding entry is recorded as “binds”.

The values above are taken from article PMC8935817.
